Assay results reported in the supplement of paper PMC12823440, “Inhibitors supercharge kinase turnover through native proteolytic circuits” (Nature, 2025).
Where a name gives a salt, the structure may show the parent alone. The list shows a part of the results. The calls rarely recur for the same compound in another form.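 Kinases, fused to nanoluciferase, were expressed in K562 cells; luminescence was measured every 4 h from 2 to 18 h as percent of control (DMSO = 100%, positive control = 0%). A time point is decreased if signal falls significantly (2 sigma). Hits were called by the authors by a rule that is not shown; the count of time points alone does not decide it.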

Amino acid sequences for entries named in this document (tags omitted).
UniProt P42356, whole entry, looked up: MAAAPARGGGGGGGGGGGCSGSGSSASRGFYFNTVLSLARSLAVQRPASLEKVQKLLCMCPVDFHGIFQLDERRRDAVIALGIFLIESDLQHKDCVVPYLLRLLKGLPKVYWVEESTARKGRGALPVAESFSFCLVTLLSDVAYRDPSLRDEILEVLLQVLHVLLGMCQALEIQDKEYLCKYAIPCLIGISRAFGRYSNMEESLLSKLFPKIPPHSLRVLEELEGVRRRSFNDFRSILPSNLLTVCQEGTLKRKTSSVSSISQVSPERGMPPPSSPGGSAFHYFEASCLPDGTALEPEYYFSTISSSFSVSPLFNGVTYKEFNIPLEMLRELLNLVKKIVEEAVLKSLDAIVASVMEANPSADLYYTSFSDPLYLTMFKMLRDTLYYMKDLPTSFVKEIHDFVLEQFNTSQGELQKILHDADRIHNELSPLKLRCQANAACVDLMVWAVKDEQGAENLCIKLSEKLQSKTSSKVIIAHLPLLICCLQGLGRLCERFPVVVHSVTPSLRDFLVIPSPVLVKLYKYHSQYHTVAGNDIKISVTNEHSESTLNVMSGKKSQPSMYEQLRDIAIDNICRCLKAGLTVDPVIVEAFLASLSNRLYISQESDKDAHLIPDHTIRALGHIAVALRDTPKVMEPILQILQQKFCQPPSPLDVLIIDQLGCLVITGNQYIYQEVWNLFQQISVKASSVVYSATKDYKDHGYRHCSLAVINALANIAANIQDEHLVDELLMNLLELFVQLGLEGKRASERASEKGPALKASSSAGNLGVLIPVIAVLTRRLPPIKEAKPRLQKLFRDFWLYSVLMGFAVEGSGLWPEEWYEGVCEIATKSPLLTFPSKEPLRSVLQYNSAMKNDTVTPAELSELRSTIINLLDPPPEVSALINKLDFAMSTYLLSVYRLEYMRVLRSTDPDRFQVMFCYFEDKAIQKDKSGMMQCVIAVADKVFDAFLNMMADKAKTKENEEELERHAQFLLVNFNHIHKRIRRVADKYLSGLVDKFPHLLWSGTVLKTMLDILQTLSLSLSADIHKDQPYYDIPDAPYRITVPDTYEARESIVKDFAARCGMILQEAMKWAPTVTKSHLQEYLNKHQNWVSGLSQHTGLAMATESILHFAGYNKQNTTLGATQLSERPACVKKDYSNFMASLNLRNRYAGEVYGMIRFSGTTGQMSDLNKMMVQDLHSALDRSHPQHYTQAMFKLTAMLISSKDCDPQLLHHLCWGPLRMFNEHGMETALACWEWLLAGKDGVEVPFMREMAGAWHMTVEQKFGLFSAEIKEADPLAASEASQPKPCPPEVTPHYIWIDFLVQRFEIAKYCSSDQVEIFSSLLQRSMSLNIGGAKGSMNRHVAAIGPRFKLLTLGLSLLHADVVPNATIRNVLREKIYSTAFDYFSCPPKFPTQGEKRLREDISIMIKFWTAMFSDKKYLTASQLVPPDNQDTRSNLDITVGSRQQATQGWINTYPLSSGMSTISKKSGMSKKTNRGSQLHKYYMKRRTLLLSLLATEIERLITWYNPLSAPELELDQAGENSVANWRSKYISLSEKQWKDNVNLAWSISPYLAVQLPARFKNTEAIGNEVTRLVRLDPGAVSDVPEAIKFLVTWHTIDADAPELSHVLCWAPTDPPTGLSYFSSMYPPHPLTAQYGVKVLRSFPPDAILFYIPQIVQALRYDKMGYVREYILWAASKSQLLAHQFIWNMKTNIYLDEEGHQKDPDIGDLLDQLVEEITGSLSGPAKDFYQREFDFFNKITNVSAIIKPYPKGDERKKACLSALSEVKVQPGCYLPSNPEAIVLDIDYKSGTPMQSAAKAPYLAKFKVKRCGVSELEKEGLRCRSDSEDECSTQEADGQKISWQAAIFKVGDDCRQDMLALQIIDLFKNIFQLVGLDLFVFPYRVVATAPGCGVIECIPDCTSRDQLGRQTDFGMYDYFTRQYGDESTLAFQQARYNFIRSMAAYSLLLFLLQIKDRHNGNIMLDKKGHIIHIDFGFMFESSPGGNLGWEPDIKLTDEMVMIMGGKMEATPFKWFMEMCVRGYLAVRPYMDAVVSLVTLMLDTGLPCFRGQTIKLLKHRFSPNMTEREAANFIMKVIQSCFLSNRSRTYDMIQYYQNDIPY

target: PIK4CA (UniProt P42356); assay: number of time points (of 5) at which kinase-Nluc abundance scored as decreased, DMSO-normalised (count); higher = more persistent destabilization; details: K562; 2-18 h

Row | SMILES | number of time points
1 | O=C1Nc2ccc(C(=O)c3ccco3)cc2C1=Cc1cc(Cl)c(O)c(Cl)c1 (2.5 µM) | 0
2 | C=CC(=O)Nc1cc(Nc2ncc(Cl)c(-c3c[nH]c4ccccc34)n2)c(OC)cc1N(C)CCN(C)C [Mutant EGFR inhibitor] (2.5 µM) | 0
3 | C[C@@H](c1ccc(-c2ccccc2)c(F)c1)c1cc(NC(=N)N2CCOCC2)on1 [Rimacalib] (10 µM) | 0
4 | Cn1nccc1Nc1nccc(-c2ccn([C@H](CO)c3ccc(Cl)c(F)c3)c(=O)c2)n1 [Ravoxertinib hydrochloride] (10 µM) | 0
5 | Oc1cc2c(cc1O)C(Cc1cccc3ccccc13)NCC2 (stereo not drawn) (10 µM) | 0
6 | O=C1N[C@@H](Cc2c[nH]c3ccccc23)C(=O)N2CCC[C@@H]12 [Brevianamide F] (10 µM) | 0
7 | CCS(=O)(=O)Nc1ccc2[nH]c(O)c(C(=Nc3ccc(CN4CCCCC4)cc3)c3ccccc3)c2c1 [Hesperadin] (2.5 µM) | 0
8 | O=C1NC(=O)/C(=C/c2ccc3nccnc3c2)S1 (10 µM) | 0
9 | CNc1nc(Nc2ccc(C(=O)N3CCOCC3)cc2OC)nc2[nH]cc(Cl)c12 (2.5 µM) | 0
10 | CC#CC(=O)N1CC[C@@H](n2c(=O)n(-c3ccc(Oc4ccccc4)cc3)c3c(N)ncnc32)C1 [Tirabrutinib] (10 µM) | 0
11 | CCc1c(C(=O)NNC(=O)C(O)c2cc(F)cc(F)c2)ccc(O)c1C (stereo not drawn) (10 µM) | 0
12 | CNC(=O)c1ccc(C)c(-n2c(C)cc(OCc3ccc(F)cc3F)c(Br)c2=O)c1 (10 µM) | 0
13 | O=C(NOCC(O)CO)c1cc(Br)c(F)c(F)c1Nc1ccc(I)cc1F (stereo not drawn) (2.5 µM) | 0
